No constants are given. Whether binding was seen depends on the method and setting. In cells and extracts the contact can be indirect. These calls come from enrichment with a bait or labelling near it, and not all partners need be listed.
Target: T1, macrophage migration inhibitory factor (MIF), endogenous (human (endogenous in MDA-MB-231 and HeLa)) (UniProt P14174)
T1 sequence: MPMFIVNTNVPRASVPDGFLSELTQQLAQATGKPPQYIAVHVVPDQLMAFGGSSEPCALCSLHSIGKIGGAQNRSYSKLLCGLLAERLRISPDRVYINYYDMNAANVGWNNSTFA
Assay: affinity purification with mass spectrometry; immunoprecipitation of endogenous MIF from HeLa cells, DMSO or 4 h after MNNG (50 uM, 15 min); MIF KO cells as negative control; hits found under both conditions

B1: Mus81, endogenous (protein, UniProt Q96NY9 1-551)
chain: MAAPVRLGRKRPLPACPNPLFVRWLTEWRDEATRSRRRTRFVFQKALRSLRRYPLPLRSGKEAKILQHFGDGLCRMLDERLQRHRTSGGDHAPDSPSGENSPAPQGRLAEVQDSSMPVPAQPKAGGSGSYWPARHSGARVILLVLYREHLNPNGHHFLTKEELLQRCAQKSPRVAPGSARPWPALRSLLHRNLVLRTHQPARYSLTPEGLELAQKLAESEGLSLLNVGIGPKEPPGEETAVPGAASAELASEAGVQQQPLELRPGEYRVLLCVDIGETRGGGHRPELLRELQRLHVTHTVRKLHVGDFVWVAQETNPRDPANPGELVLDHIVERKRLDDLCSSIIDGRFREQKFRLKRCGLERRVYLVEEHGSVHNLSLPESTLLQAVTNTQVIDGFFVKRTADIKESAAYLALLTRGLQRLYQGHTLRSRPWGTPGNPESGAMTSPNPLCSLLTFSDFNAGAIKNKAQSVREVFARQLMQVRGVSGEKAAALVDRYSTPASLLAAYDACATPKEQETLLSTIKCGRLQRNLGPALSRTLSQLYCSYGPLT
- binding: binds

— paper PMC8134555
